In patent publication US20050240034A1, “Artemisinin-based peroxide compounds as broad spectrum anti-infective agents” (priority 2002, published 2005):
Some results were stated once for a whole list of compounds, not compound by compound.

Assay: pharmacokinetics in rats after intravenous and oral administration
Format: in vivo
Protocol: Preliminary data for the PK results of compounds 39 and 36 have been disclosed. […] Due to their very low aqueous solubility, the absolute oral bioavailability of each compound was low. The low value is rather a function of the high oral dose (˜120 mg/kg), but even with these high doses, the plasma concentrations are still relatively low.
The reason for the use of high oral dose is that the LC/MS assay has different intrinsic sensitivities for the different series of the Malperox compounds. Also, in order to compare all compounds from the different series at the same oral molar dose (dictated by the compound, which has the highest LOQ in the assay), it was necessary for them to have gone with this dose.
Compounds 39 and 36 have reasonably low plasma LOQ of about 10 ng/mL, so it will be tested with lower oral doses in the coming future. If we assume that it is only the fraction of drug in solution that is absorbed, then the oral bioavailabilities may well increase with lower doses.
Solubility limitations meant that 36 could only be dosed IV at approximate 2 mg/kg (compared with the approximate 12 mg/kg dose for 39). It is possible that the shorter measured half life for 36 was a function of lower plasma concentrations, which have reflected part of the distribution phase rather than a true elimination phase.

(+)-Octahydro-3,6α-dimethyl-3,12-epoxy-9β-(3′-(m-chlorophenyl)propyl)-12H-pyrano[4,3j]-1,2-benzodioxepin [Compound 36]
clearance: 20 to 30 mL/min/kg

(+)-Octahydro-3,6α-dimethyl-3,12-epoxy-9β-(3′-(p-trifluoromethylphenyl)propyl)-12H-pyrano[4,3j]-1,2-benzodioxepin [Compound 39]
clearance: 20 to 30 mL/min/kg
